From patent publication US10428387B2, “Treating chronic myelogenous leukemia (CML)” (priority 2014, dated 2019)
At least one compound was matched to its structure with a doubt left.

How the values were obtained:
K562R cells = conditions: K562R over-express the Src family kinase LYN; cited from earlier work
IMSG KD K562 cells = conditions: 1.5 nM trametinib
[1] = tested on: phosphorylated ERK1/2 in CML progenitor and stem cells; assay: Intracellular phosphorylated-ERK1/2 analysis by FACS; type: cell-based, mouse; conditions: 5 μM IM or 10 nM trametinib, 3 hours
Description: For intracellular phosphorylated-ERK1/2 analysis, bone marrow cells isolated from leukemic mice were treated with 5 μM IM or 10 nM trametinib for 3 hours, fixed in 4% paraformaldehyde (Electron Microscopy Sciences) for 10 min at 37° C., washed twice with wash buffer (0.05% BSA in 1×PBS), spun down, and resuspended in 100 μl wash buffer. Ice-cold methanol (900 μl) was added to the cells while gently vortexing to reach a final 90% for permeabilization. Samples were incubated on ice for 30 min, washed twice, and resuspended in 100 μl wash buffer. IgG control antibody (Cell signaling) was added (at 1:100 dilution) for 10 min at room temperature for blocking, followed by addition of 2 μl conjugated IgG control (Pacific Blue-conjugated IgG^XP Rabbit mAb, Cell Signaling) or phospho-ERK antibody (Pacific Blue-conjugated P-p44/42(T202/Y204)^XP Rabbit mAb, Cell Signaling). Samples were gently mixed and incubated at room temperature for 1 hour. Thirty minutes after the start of the incubation, a cocktail of primary antibodies for cell surface markers (described above) was added, incubated for a further 30 min, washed once with PBS, and incubated with the secondary antibody for 20 min on ice. Samples were then washed once with wash buffer prior to FACS analysis.

| SMILES | sensitivity of K562R cells (K562R cells) | effect of trametinib alone on K562 cell lines (IMSG KD K562 cells) | phosphorylated ERK1/2 in CML progenitor cells [1] | phosphorylated ERK1/2 in CML stem cells [1] |
| --- | --- | --- | --- | --- |
| Cc1nc(Nc2ncc(C(=O)Nc3c(C)cccc3Cl)s2)cc(N2CCN(CCO)CC2)n1 [dasatinib] | sensitive |  |  |  |
| CC(=O)Nc1cccc(-n2c(=O)n(C3CC3)c(=O)c3c(Nc4ccc(I)cc4F)n(C)c(=O)c(C)c32)c1 [trametinib] |  | modest effect | reduced phosphorylated ERK1/2 | reduced phosphorylated ERK1/2 |
